Results from article PMC4475061.

Experiments:
[1] = molecular target: CHMP1B WT fused to the Gal4 DNA-binding domain (human); assay: two-hybrid; yeast Y190; VP16 activation domain fusions (pHB18) against Gal4 DNA-binding domain fusions (pGBKT7); β-galactosidase activity in yeast extracts
[2] = molecular target: CHMP1B TAE/RRR (T178A181E184/RRR) fused to the Gal4 DNA-binding domain (human); assay: as above
HA-CHMP1B (human) = assay: co-IP; 293T cells expressing HA-ESCRT-III; α-HA and protein G-agarose, 4°C; endogenous ULK3 detected by α-ULK3 blot

B1: ULK3 fused to the VP16 activation domain (enzyme, UniProt Q6PHR2 1-472)
chain: MAGPGWGPPRLDGFILTERLGSGTYATVYKAYAKKDTREVVAIKCVAKKSLNKASVENLLTEIEILKGIRHPHIVQLKDFQWDSDNIYLIMEFCAGGDLSRFIHTRRILPEKVARVFMQQLASALQFLHERNISHLDLKPQNILLSSLEKPHLKLADFGFAQHMSPWDEKHVLRGSPLYMAPEMVCQRQYDARVDLWSMGVILYEALFGQPPFASRSFSELEEKIRSNRVIELPLRPLLSRDCRDLLQRLLERDPSRRISFQDFFAHPWVDLEHMPSGESLGRATALVVQAVKKDQEGDSAAALSLYCKALDFFVPALHYEVDAQRKEAIKAKVGQYVSRAEELKAIVSSSNQALLRQGTSARDLLREMARDKPRLLAALEVASAAMAKEEAAGGEQDALDLYQHSLGELLLLLAAEPPGRRRELLHTEVQNLMARAEYLKEQVKMRESRWEADTLDKEGLSESVRSSCTLQ
binding [1]: binds | binding [2]: binds

B2: ULK3 V338D fused to the VP16 activation domain (enzyme, UniProt Q6PHR2 1-472)
chain: MAGPGWGPPRLDGFILTERLGSGTYATVYKAYAKKDTREVVAIKCVAKKSLNKASVENLLTEIEILKGIRHPHIVQLKDFQWDSDNIYLIMEFCAGGDLSRFIHTRRILPEKVARVFMQQLASALQFLHERNISHLDLKPQNILLSSLEKPHLKLADFGFAQHMSPWDEKHVLRGSPLYMAPEMVCQRQYDARVDLWSMGVILYEALFGQPPFASRSFSELEEKIRSNRVIELPLRPLLSRDCRDLLQRLLERDPSRRISFQDFFAHPWVDLEHMPSGESLGRATALVVQAVKKDQEGDSAAALSLYCKALDFFVPALHYEVDAQRKEAIKAKVGQYDSRAEELKAIVSSSNQALLRQGTSARDLLREMARDKPRLLAALEVASAAMAKEEAAGGEQDALDLYQHSLGELLLLLAAEPPGRRRELLHTEVQNLMARAEYLKEQVKMRESRWEADTLDKEGLSESVRSSCTLQ
binding [1]: binds

B3: ULK3 M434D fused to the VP16 activation domain (enzyme, UniProt Q6PHR2 1-472)
chain: MAGPGWGPPRLDGFILTERLGSGTYATVYKAYAKKDTREVVAIKCVAKKSLNKASVENLLTEIEILKGIRHPHIVQLKDFQWDSDNIYLIMEFCAGGDLSRFIHTRRILPEKVARVFMQQLASALQFLHERNISHLDLKPQNILLSSLEKPHLKLADFGFAQHMSPWDEKHVLRGSPLYMAPEMVCQRQYDARVDLWSMGVILYEALFGQPPFASRSFSELEEKIRSNRVIELPLRPLLSRDCRDLLQRLLERDPSRRISFQDFFAHPWVDLEHMPSGESLGRATALVVQAVKKDQEGDSAAALSLYCKALDFFVPALHYEVDAQRKEAIKAKVGQYVSRAEELKAIVSSSNQALLRQGTSARDLLREMARDKPRLLAALEVASAAMAKEEAAGGEQDALDLYQHSLGELLLLLAAEPPGRRRELLHTEVQNLDARAEYLKEQVKMRESRWEADTLDKEGLSESVRSSCTLQ
binding [1]: binds

B4: endogenous ULK3 (enzyme, UniProt Q6PHR2 1-472)
chain: MAGPGWGPPRLDGFILTERLGSGTYATVYKAYAKKDTREVVAIKCVAKKSLNKASVENLLTEIEILKGIRHPHIVQLKDFQWDSDNIYLIMEFCAGGDLSRFIHTRRILPEKVARVFMQQLASALQFLHERNISHLDLKPQNILLSSLEKPHLKLADFGFAQHMSPWDEKHVLRGSPLYMAPEMVCQRQYDARVDLWSMGVILYEALFGQPPFASRSFSELEEKIRSNRVIELPLRPLLSRDCRDLLQRLLERDPSRRISFQDFFAHPWVDLEHMPSGESLGRATALVVQAVKKDQEGDSAAALSLYCKALDFFVPALHYEVDAQRKEAIKAKVGQYVSRAEELKAIVSSSNQALLRQGTSARDLLREMARDKPRLLAALEVASAAMAKEEAAGGEQDALDLYQHSLGELLLLLAAEPPGRRRELLHTEVQNLMARAEYLKEQVKMRESRWEADTLDKEGLSESVRSSCTLQ
binding (HA-CHMP1B (human)): binds

Results are given in words; binding and its absence hold for the method and conditions named. Binding calls can cover weak binding; strength is not graded here. For some assays here: Where a sequence is shown, tags or fusion partners need not be part of it. For some assays here: In cells and extracts the contact can be indirect.
